Results deposited as PubChem BioAssay AID1259327 (Drosophila RNAi Screening Center, 2017).

Assay: 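Data from controls in screens of zinc and manganese toxicity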
Cell system: Drosophila S2R+ cells
Knock-down reagent: long dsRNA against Drosophila genes
Timing: 5 days (water added on day 4, read one day later)
Conditions: water added as vehicle, no metal, one day before read-out
Measurement: 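Total ATP measured by luciferase light, scaled to plate mean, duplicates averaged, then z-scored across plates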
Direction: ATP z-score: higher = more total ATP than typical wells; ATP luminescence: higher = more total ATP
Hit rule: 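a hit is any knock-down whose absolute ATP z-score is greater than 1.5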
Meaning of the calls: active = hit: ATP up or down; inactive = no clear ATP change
In all, the deposit lists about 3,100 reagents; shown is a random part of them. 378 of all reagents (12%) count as active. 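Hits include both directions; z-score sign shows ATP rise or fall; raw luminescence values are not plate-normalised.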 A plus sign joins genes that one reagent is predicted to hit. Reagent sequences are not shown. Not given: the amount of reagent.

| gene knocked down | dsRNA | ATP z-score, duplicate mean | ATP luminescence, replicate 1 (RLU) | ATP luminescence, replicate 2 (RLU) | activity call |
| --- | --- | --- | --- | --- | --- |
| Nrt (GeneID 39873) | DRSC11237 | -0.395 | 6.76e5 | 7.02e5 | inactive |
| wfs1 (GeneID 42679) | DRSC15676 | 1.92 | 4.42e5 | 8.24e5 | active |
| Gr47b (GeneID 117345) | DRSC05275 | -0.263 | 6.39e5 | 7.93e5 | inactive |
| Gr47b (GeneID 117345) | DRSC39674 | 0.556 | 4.91e5 | 5.16e5 | inactive |
| CG8837 (GeneID 33545) | DRSC00711 | 0.136 | 7.70e5 | 6.71e5 | inactive |
| CG8837 (GeneID 33545) | DRSC29440 | 0.093 | 8.78e5 | 7.94e5 | inactive |
| CG5880 (GeneID 43268) | DRSC15906 | 0.264 | 7.71e5 | 6.96e5 | inactive |
| CG5880 (GeneID 43268) | DRSC39828 | -0.415 | 4.69e5 | 4.29e5 | inactive |
| aph-1 (GeneID 33467) | DRSC00547 | 0.0577 | 4.79e5 | 4.88e5 | inactive |
| aph-1 (GeneID 33467) | DRSC39729 | -0.141 | 4.67e5 | 4.44e5 | inactive |
| Ugalt (GeneID 31255) | DRSC18467 | 0.806 | 7.56e5 | 7.69e5 | inactive |
| O-fut1 (GeneID 36564) | DRSC06138 | -2.38 | 4.92e5 | 4.62e5 | active |
| O-fut1 (GeneID 36564) | DRSC39595 | -0.621 | 4.27e5 | 4.18e5 | inactive |
| Loxl2 (GeneID 37485) | DRSC04469 | 0.0814 | 7.65e5 | 7.13e5 | inactive |
| Spp (GeneID 33227) | DRSC00328 | -0.33 | 5.27e5 | 3.79e5 | inactive |
| Tsp42Ee (GeneID 35614) | DRSC05947 | 1.79 | 7.84e5 | 7.79e5 | active |
| Tsp42Ee (GeneID 35614) | DRSC29024 | 1.1 | 8.55e5 | 1.04e6 | inactive |
| spdo (GeneID 318559) | DRSC13988 | -0.579 | 8.30e5 | 8.10e5 | inactive |
| spdo (GeneID 318559) | DRSC24230 | 0.496 | 9.13e5 | 8.54e5 | inactive |
| Orco (GeneID 40650) | DRSC12358 | 0.421 | 9.93e5 | 9.11e5 | inactive |
| Orco (GeneID 40650) | DRSC27061 | -0.062 | 7.96e5 | 8.87e5 | inactive |
| Or85e (GeneID 41018) | DRSC16768 | 0.71 | 3.33e5 | 8.33e5 | inactive |
| CG13887 (GeneID 38096) | DRSC08357 | -0.573 | 6.79e5 | 6.60e5 | inactive |
| CG1998 (GeneID 32300) | DRSC19829 | 0.391 | 6.30e5 | 6.95e5 | inactive |
| CG1998 (GeneID 32300) | DRSC39895 | -1.56 | 3.91e5 | 5.19e5 | active |
| fz4 (GeneID 31659) | DRSC18780 | -0.897 | 5.57e5 | 7.69e5 | inactive |
| mthl9 (GeneID 38056) | DRSC08506 | -0.523 | 6.44e5 | 5.00e5 | inactive |
| mthl9 (GeneID 38056) | DRSC39784 | 0.121 | 4.55e5 | 5.22e5 | inactive |
| Trpm (GeneID 36694) | DRSC06629 | 0.621 | 7.52e5 | 8.44e5 | inactive |
| Trpm (GeneID 36694) | DRSC27597 | -0.0122 | 1.08e6 | 1.17e6 | inactive |
| Trpm (GeneID 36694) | DRSC29042 | -0.0576 | 8.74e5 | 7.62e5 | inactive |
| Nox (GeneID 5740310) | DRSC06596 | 0.966 | 6.16e5 | 7.98e5 | inactive |
| Nox (GeneID 5740310) | DRSC06857 | 0.677 | 7.31e5 | 9.06e5 | inactive |
| Nox (GeneID 5740310) | DRSC27816 | -1.78 | 8.15e5 | 9.25e5 | active |
| Tsp29Fa (GeneID 34211) | DRSC03232 | 1.45 | 8.61e5 | 8.99e5 | inactive |
| Tsp29Fa (GeneID 34211) | DRSC28522 | 0.687 | 9.47e5 | 8.67e5 | inactive |
| ClC-a (GeneID 41428) | DRSC14947 | -0.405 | 3.11e5 | 6.40e5 | inactive |
| ClC-a (GeneID 41428) | DRSC14948 | 0.838 | 2.88e5 | 9.76e5 | inactive |
| ClC-a (GeneID 41428) | DRSC16142 | 0.677 | 7.87e5 | 7.64e5 | inactive |
| Abcd3 (GeneID 32992) | DRSC19488 | 0.104 | 7.26e5 | 7.83e5 | inactive |
| Abcd3 (GeneID 32992) | DRSC29341 | -0.382 | 8.09e5 | 7.47e5 | inactive |
| Cirl (GeneID 35846) | DRSC23235 | -0.739 | 5.21e5 | 5.13e5 | inactive |
| Cirl (GeneID 35846) | DRSC28280 | -0.563 | 7.84e5 | 7.28e5 | inactive |
| ZnT77C (GeneID 40271) | DRSC11766 | -0.47 | 8.24e5 | 8.43e5 | inactive |
| ZnT77C (GeneID 40271) | DRSC11767 | -0.0788 | 7.60e5 | 7.06e5 | inactive |
| CG16700 (GeneID 32694) | DRSC19755 | 0.327 | 7.72e5 | 7.84e5 | inactive |
| CG16700 (GeneID 32694) | DRSC39560 | -1.35 | 3.63e5 | 3.85e5 | inactive |
| Shawl (GeneID 5740840) | DRSC02209 | 1.38 | 8.62e5 | 8.82e5 | inactive |
| Shawl (GeneID 5740840) | DRSC02748 | -0.068 | 8.90e5 | 8.84e5 | inactive |
| Shawl (GeneID 5740840) | DRSC24307 | 0.83 | 1.08e6 | 7.77e5 | inactive |
| rho-6 (GeneID 34640) | DRSC02588 | -0.47 | 6.55e5 | 6.97e5 | inactive |
| rho-6 (GeneID 34640) | DRSC29070 | 0.48 | 9.31e5 | 8.34e5 | inactive |

Continued; the last 2 above are carried over.
| gene knocked down | dsRNA | ATP z-score, duplicate mean | ATP luminescence, replicate 1 (RLU) | ATP luminescence, replicate 2 (RLU) | activity call |
| --- | --- | --- | --- | --- | --- |
| rho-6 (GeneID 34640) | DRSC02588 | -0.47 | 6.55e5 | 6.97e5 | inactive |
| rho-6 (GeneID 34640) | DRSC29070 | 0.48 | 9.31e5 | 8.34e5 | inactive |
| CG6484 (GeneID 36994) | DRSC06991 | 1.24 | 8.27e5 | 9.01e5 | inactive |
| CG6484 (GeneID 36994) | DRSC28087 | -1.13 | 1.12e6 | 9.62e5 | inactive |
| CG13579 (GeneID 37905) | DRSC04215 | -1.62 | 5.50e5 | 5.58e5 | active |
| CG13579 (GeneID 37905) | DRSC25603 | 0.453 | 9.64e5 | 1.07e6 | inactive |
| Drip (GeneID 36236) | DRSC07405 | -1.57 | 4.96e5 | 4.60e5 | active |
| GluRIB (GeneID 44484) | DRSC11177 | 1.65 | 1.02e6 | 1.19e6 | active |
| GluRIB (GeneID 44484) | DRSC25464 | -0.508 | 8.07e5 | 7.67e5 | inactive |
| Dh44-R2 (GeneID 36368) | DRSC06141 | -0.276 | 5.42e5 | 6.47e5 | inactive |
| Delta (GeneID 42313) | DRSC16648 | 1.02 | 3.70e5 | 8.09e5 | inactive |
| Delta (GeneID 42313) | DRSC24112 | 0.541 | 9.92e5 | 8.42e5 | inactive |
| CG14234 (GeneID 32988) | DRSC19317 | 1.15 | 6.59e5 | 7.88e5 | inactive |
| CG14234 (GeneID 32988) | DRSC19589 | 0.0926 | 7.36e5 | 7.70e5 | inactive |
| KCNQ (GeneID 36071) | DRSC06230 | -0.736 | 5.09e5 | 5.97e5 | inactive |
| KCNQ (GeneID 36071) | DRSC25242 | -1.35 | 7.53e5 | 6.12e5 | inactive |
| CG11110 (GeneID 37337) | DRSC06037 | -1.44 | 5.36e5 | 4.41e5 | inactive |
| CG11110 (GeneID 37337) | DRSC27355 | 1.74 | 1.18e6 | 1.17e6 | active |
| rdo (GeneID 35077) | DRSC02452 | 0.77 | 4.88e5 | 5.81e5 | inactive |
| rdo (GeneID 35077) | DRSC25572 | 0.582 | 9.06e5 | 9.40e5 | inactive |
| CG13426 (GeneID 37312) | DRSC06388 | -0.909 | 5.15e5 | 5.60e5 | inactive |
| Pex23 (GeneID 40229) | DRSC10323 | -0.355 | 6.99e5 | 6.87e5 | inactive |
| Pex23 (GeneID 40229) | DRSC10645 | -1.06 | 7.89e5 | 7.28e5 | inactive |
| Pex23 (GeneID 40229) | DRSC28370 | -0.106 | 9.28e5 | 7.03e5 | inactive |
| Ctns (GeneID 42723) | DRSC15175 | -1.11 | 2.87e5 | 5.44e5 | inactive |
| Ctns (GeneID 42723) | DRSC39640 | 1.69 | 5.54e5 | 6.07e5 | active |
| CG6978 (GeneID 31413) | DRSC18409 | 0.681 | 7.50e5 | 7.81e5 | inactive |
| CG6978 (GeneID 31413) | DRSC39567 | 1.15 | 5.71e5 | 5.14e5 | inactive |
| CG33282 (GeneID 2768939) | DRSC00422 | -0.398 | 6.86e5 | 6.44e5 | inactive |
| CG33282 (GeneID 2768939) | DRSC39731 | -1.4 | 3.58e5 | 3.82e5 | inactive |
| CG3078 (GeneID 31211) | DRSC39707 | 2.57 | 5.90e5 | 6.92e5 | active |
| CG3078 (GeneID 31211) | DRSC39834 | -0.665 | 3.64e5 | 5.06e5 | inactive |
| CG42638 + Trpml | DRSC11032 | -1.52 | 5.37e5 | 6.02e5 | active |
| CG42638 + Trpml | DRSC39630 | 0.321 | 4.50e5 | 5.25e5 | inactive |
| mthl11 (GeneID 117467) | DRSC12779 | -0.761 | 2.76e5 | 6.51e5 | inactive |
| mthl11 (GeneID 117467) | DRSC28437 | -0.105 | 8.53e5 | 7.71e5 | inactive |
| Tsp47F (GeneID 36230) | DRSC07325 | 0.235 | 7.18e5 | 5.63e5 | inactive |
